According to US20240390459A1, “ANTI-DEPRESSION AND ANTI-ANXIETY APPLICATION OF POLYPEPTIDE AND COMPLEX” (SHENZHEN CHENYANG BIOLOGICAL TECHNOLOGY CO., LTD, priority 2021, published 2024):
These are yes or no findings as the source states them, for the method shown. In cells and extracts the contact can be indirect. Some results given as binding are weak or reduced against the parent protein; the word gives no strength. Sequences can lack the tags named with a protein.

The chains behind the UniProt entries cited, without tags or fusion partners. Where a name states a change or a piece, a line headed by the entry shows the natural chain unless it says otherwise.
UniProt Q61616: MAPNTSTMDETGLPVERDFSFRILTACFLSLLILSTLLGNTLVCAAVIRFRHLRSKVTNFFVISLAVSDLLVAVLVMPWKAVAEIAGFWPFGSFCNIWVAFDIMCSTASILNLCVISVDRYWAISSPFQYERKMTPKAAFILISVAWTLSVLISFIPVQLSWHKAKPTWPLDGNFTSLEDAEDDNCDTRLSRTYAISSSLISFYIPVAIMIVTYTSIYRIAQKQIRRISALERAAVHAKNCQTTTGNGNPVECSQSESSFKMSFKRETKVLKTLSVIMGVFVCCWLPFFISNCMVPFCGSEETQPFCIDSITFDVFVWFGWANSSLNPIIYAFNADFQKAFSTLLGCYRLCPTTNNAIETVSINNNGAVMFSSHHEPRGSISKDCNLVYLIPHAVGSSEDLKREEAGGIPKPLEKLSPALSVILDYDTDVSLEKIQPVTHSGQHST

Target: Dopamine D1 receptor (D1R), endogenous, from mouse hippocampus tissue (mouse) (UniProt Q61616)
Assay: GST pulldown from mouse hippocampus extract, Western blot

binding: binds
B1: GST fusion protein containing a SV region of 5-HT2AR (GST-5HT2AR-SV) (peptide, not shown: a dimerising Fc or GST)
chain: SKDNSDGVNEKVSCV
